# Test results: patent US6416733B1, “Radiopharmaceuticals for imaging infection and inflammation” (Bristol-Myers Squibb Pharma Company, priority 1996, dated 2002)
# Protein sequences, listed by entry. Tags and fused reporters are not part of them. Lines headed by an entry give the natural chain unless they say otherwise; changes in a name come on top.
# UniProt Q15722: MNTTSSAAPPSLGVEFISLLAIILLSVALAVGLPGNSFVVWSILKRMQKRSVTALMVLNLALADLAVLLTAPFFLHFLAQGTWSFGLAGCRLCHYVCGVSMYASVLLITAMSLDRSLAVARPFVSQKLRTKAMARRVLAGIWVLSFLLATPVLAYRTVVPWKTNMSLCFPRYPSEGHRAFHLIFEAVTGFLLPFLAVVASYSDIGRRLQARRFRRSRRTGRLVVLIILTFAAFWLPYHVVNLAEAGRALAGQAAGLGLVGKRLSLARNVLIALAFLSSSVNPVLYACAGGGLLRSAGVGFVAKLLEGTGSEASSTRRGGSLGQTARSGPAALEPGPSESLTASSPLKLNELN
# Some results were stated once for a whole list of compounds, not compound by compound. At least one compound was matched to its structure with a doubt left.
# Biological target: T1, PMN LTB4 receptor (Homo sapiens, UniProt Q15722)
# T1 construct: endogenous in cells; host or cells: neutrophils (PMN) isolated from heparinized blood by ficoll gradient and dextran sedimentation
# Assay: LTB4 Human Neutrophil (PMN) Binding Assay
# Conditions: competition with [3H]LTB4 (1 nM), 10 min at 4° C.
# Excerpt: LTB4 Human Neutrophil (PMN) Binding Assay
# LTB4 for the PMN LTB4 receptor.
smiles,measurement,value
CC(C)(CCCCOc1cc(-c2ccc3c(c2)OCO3)cc(-c2ccccc2)n1)CNC(=O)CC(NC(=O)c1ccc(NN=Cc2ccccc2S(=O)(=O)O)nc1)C(=O)NC(CC(=O)O)C(=O)NC(CC(=O)O)C(=O)NC(CC(=O)O)C(=O)O (stereo not shown) [Example 88],found to be active in the LTB4 human neutrophil (PMN) binding assay,active
